From PubChem BioAssay AID504444 (National Center for Advancing Translational Sciences (NCATS), 2011)
In all, about 360,000 compounds went through this assay and about 7,500 (2.1%) were called active. The inconclusive results got no clear call from the source; some entries with a clear call stand among them for comparison. Calls follow the shape of the dose curve; as a rule, active = well fitted inhibition curve with a large enough effect; inconclusive = small, poorly fitted or top-dose-only effect, or effect the other way; inactive = flat fitted curve, though single readings scatter. Potencies beside an inconclusive call are fits to weak or partial responses and may not hold up.

Assay: Nrf2 qHTS screen for inhibitors; also: nearly all actives have a fitted effect of over 60% in size
Conditions: A549 ARE-Fluc reporter, luciferase luminescence, 18-24 h; activity change, negative = inhibition: at 46 µM (top of the series)
Summary of the method: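 In this cell-based qHTS, ARE-driven firefly luciferase in A549 cells reports Nrf2 activity; the luminescent signal after BugLite lysis is the measured value, with a prior CellTiter-Fluor read for cell health.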
% is scaled to controls: 0 for no effect and ±100 for the full control effect; potency is read from the fitted curve at half-maximal effect.

Structure (SMILES) | Potency | activity change, negative = inhibition
CC(=O)NCCNC(=O)c1ccc(CSc2ccc(Cl)cc2)cc1 | inconclusive: 0.731 µM [activator, partial curve, poor fit] | 
CN1C(=O)C2(c3ccccc31)N(C)CC(c1ccccc1)C21SC(=S)N(Cc2ccco2)C1=O (stereo not drawn) | inconclusive: 14.6 µM [falling, partial curve] | 
O=C(COc1ccc2ccccc2c1)NNC(=O)C(=O)Nc1ccccc1 | inconclusive: 0.651 µM [activator, full curve, poor fit] | 
O=S(=O)(Nc1ccc2c(c1)OCCO2)c1ccc2oc3ccccc3c2c1 | inconclusive: 25.9 µM [falling, single point] | 
COc1ccc2cc3cc(C(=O)N4CCCCCC4)oc3nc2c1 | inconclusive: 2.91 µM [activator, partial curve] | 
O=C(Nc1nc2ccccc2[nH]1)c1ccc(F)c(S(=O)(=O)N2CCOCC2)c1 | inconclusive: 8.2 µM [activator, partial curve] | 
O=c1[nH][nH]cc1C=Nc1cc(Cl)ccc1O | inconclusive: 0.731 µM [falling, partial curve, poor fit] | 
CC(C)n1cnnc1SCC(=O)Nc1cccc(S(=O)(=O)N(C)c2ccccc2)c1 | inconclusive: 23.1 µM [falling, partial curve, poor fit] | 
CCCCOc1ccc(-n2nc(C)cc2C)nn1 | inconclusive: 10.3 µM [activator, partial curve, poor fit] | 
C=CCNCCCOc1ccc(C)cc1Br | inconclusive: 25.9 µM [activator, single point] | 
O=C(NNC(=O)c1ccc(S(=O)(=O)N2CCOCC2)cc1)c1ccccc1 |  | inactive: 4.57%
CC(C)[C@@H](C(=O)NC1CC1)N1C(=O)N2CCc3c([nH]c4ccccc34)[C@@]2(C)C1=O |  | inactive: 8.99%
C=CCn1c(C)cc(C(=O)COc2ccc(N(C)S(=O)(=O)c3ccc(NC(C)=O)cc3)cc2)c1C | active: 16.4 µM | 
N#Cc1c(SCC(N)=O)nsc1SCc1ccccc1Cl | inconclusive: 23.1 µM [falling, single point] | 
COc1cc(C(=O)Nc2ccc3nc4n(c(=O)c3c2)CCCCC4)cc(OC)c1OC | inconclusive: 23.1 µM [falling, single point] | 
c1ccc2[nH]c(SCc3cscn3)nc2c1 | inconclusive: 29.1 µM [activator, single point] | 
O=C(Nc1cccc(-n2cnnn2)c1)C1CCCN(Cc2cccc(C(F)(F)F)c2)C1 (stereo not drawn) | inconclusive: 23.1 µM [falling, single point] | 
COc1ccccc1-n1cnc2cc(NCc3ccco3)ccc21 |  | inactive: 15.5%

Single records (already shown).
CC(=O)NCCNC(=O)c1ccc(CSc2ccc(Cl)cc2)cc1 in the list: Potency: inconclusive: 0.731 µM [activator, partial curve, poor fit]
C=CCNCCCOc1ccc(C)cc1Br in the list: Potency: inconclusive: 25.9 µM [activator, single point]
